Results are given in words; binding and its absence hold for the method and conditions named. For some of these results: A result given as binding can be weak or reduced; the word gives no strength. For some of these results: Binding seen in cells or lysates may run through a third protein.
Columns and labels:
[1] = biological target: Vrl1-3HA (over-expressed) (S. cerevisiae); experiment: co-IP; yeast spheroplast lysates (0.1% Tween-20, 50 mM HEPES, 1 mM EDTA, 50 mM NaCl, pH 7.4); rabbit anti-GFP or anti-HA, Protein A Sepharose, 4 °C; western blot; Vrl1 over-expressed in some panels; vin1Δ strain for Vps5-3HA with Vrl1-Envy
[2] = biological target: Vrl1-Envy (S. cerevisiae); experiment: subcellular recruitment assay (live-cell fluorescence microscopy); mScarletI-tagged prey scored as puncta per cell in yeast that express Envy-tagged Vrl1 constructs or chimeras anchored to endosomes by the Ypt35 PX domain (YPE); some experiments in a vin1Δ strain
[3] = biological target: Vrl1^D373A-Envy (S. cerevisiae); experiment: as above
[4] = biological target: Vrl1-Envy (S. cerevisiae); experiment: co-IP; yeast spheroplast lysates (0.1% Tween-20, 50 mM HEPES, 1 mM EDTA, 50 mM NaCl, pH 7.4); rabbit anti-GFP or anti-HA, Protein A Sepharose, 4 °C; western blot; Vrl1 over-expressed in some panels; vin1Δ strain for Vps5-3HA with Vrl1-Envy

Binder | binding [1] | further results
Snx41 (protein, UniProt Q04053 1-625) MDYNIFEAVHEQQSSTSDMDLSEEDNNPFVGTHHLYASGIGTTIGEARPENENSPPSSSSLPSSPAHSSSAGSSRASTSSSTSSHAVVEADAETEPFVSLSMSTTATISKFTPHDMNGTQQIQIIDAGDFKDPWGKHAIGYVILYENNKIIRRYSEFHSLRQSLTRLLPTIIIPPIPSKHSLLKYIWSPINAANDSKIISTRKKMLNSFLSNCLNIQEISNDIVFQKFLNPEFNWKDVLSSSPIIILPLNNLLAPPLSPTKPSPLHSILPIPSNSSLRNYNSIWQQHITVKSHNEISNLPTEILQNESQFTHIENLFQNYKRIITHLLKNIRSNKSHFHSLSTYFAELGAYYNAFSLENDITMPNSLRESENNSNNPMMEIISHIEKTGHSFDVIYISSEILIEKYTSILEDPINELLQFLNESFKVLNFKKLKFLQFKILERLIIEKETKLSSLTEIENQLQKINESLTRSTILTDENYKDTKAADLTFVKKDVRSLSKSSSNSSSSGHQNEIHIGASKLNYKTSTPTMNLNKLEIKQLTEQERSKQIKQLNQDLSKLKDCLSICISDMLEINNSSYNSLMHTYNHINLTIGKILKLFAASFKAWIKECLKNWKLAKLQIDEAL | no binding | –
Vin1 (as tested among the yeast SNX-BARs in Figure 3C) (protein, UniProt P36158 1-585) MENDKASHASPSIGVNEFVVQGEISIDDSERSVKSVSVSISDDEDSKTDVQDNMATPSTRSKFQTDLAIDNRLLEKDPKYKKLFTEKRRRRRPESCINLMTKGKGTGQKDNINDQIFSLRILPGSDLNSLKDSLWIIKISTQPDVEKTIARAFSDFYWLYHQLQNNHWGKTIPPPTRSNILVEKDEFAINHLFMIRNNEKYDPIFNFKPEYIISLQLMAMIKHIFNDKVLRLDSNFIDFISWDDDLPESLQIVVDDSTFTGDKILMTSSQFRELKEFHKQSKKVESITNSHASLIPVTELTEIYISPTKLFSRKDYQRLFQPQSTDNTFNNNDPLIQEWIPKSKTLFTSLSFGSSAPTYQEASTEIQACHDWVSISKEQWKQLLYHVLQYIVDEAVKVNSVINEFTECLKQISLDEVIRANSELFLKFSKLNESFLKKFKGASRQDILKLIILFDENVRFCESFESILNQRLKLGKILSIIEVDLDKKKNFLDKLSPGNNNSNNEDLKIRTAEDEYRIVLKRYNRVKQSWEKIMEDILNERKEFEKREAAEVNSCLKSIRDLNMDEKKHYLQLWQDFVPDEHISQ | binds | –
Vin1-mScarletI (protein, UniProt P36158 1-585) MENDKASHASPSIGVNEFVVQGEISIDDSERSVKSVSVSISDDEDSKTDVQDNMATPSTRSKFQTDLAIDNRLLEKDPKYKKLFTEKRRRRRPESCINLMTKGKGTGQKDNINDQIFSLRILPGSDLNSLKDSLWIIKISTQPDVEKTIARAFSDFYWLYHQLQNNHWGKTIPPPTRSNILVEKDEFAINHLFMIRNNEKYDPIFNFKPEYIISLQLMAMIKHIFNDKVLRLDSNFIDFISWDDDLPESLQIVVDDSTFTGDKILMTSSQFRELKEFHKQSKKVESITNSHASLIPVTELTEIYISPTKLFSRKDYQRLFQPQSTDNTFNNNDPLIQEWIPKSKTLFTSLSFGSSAPTYQEASTEIQACHDWVSISKEQWKQLLYHVLQYIVDEAVKVNSVINEFTECLKQISLDEVIRANSELFLKFSKLNESFLKKFKGASRQDILKLIILFDENVRFCESFESILNQRLKLGKILSIIEVDLDKKKNFLDKLSPGNNNSNNEDLKIRTAEDEYRIVLKRYNRVKQSWEKIMEDILNERKEFEKREAAEVNSCLKSIRDLNMDEKKHYLQLWQDFVPDEHISQ | – | binding [2]: binds; binding [3]: binds
Vps5-3HA (protein, UniProt Q92331 1-675) MDYEDNLEAPVWDELNHEGDKTQSLVSNSIESIGQISTNEERKDNELLETTASFADKIDLDSAPEWKDPGLSVAGNPQLEEHDNSKADDLINSLAPEQDPIADLKNSTTQFIATRESGGALFTGNANSPLVFDDTIYDANTSPNTSKSISGRRSGKPRILFDSARAQRNSKRNHSLKAKRTTASDDTIKTPFTDPLKKAEKENEFVEEPLDDRNERRENNEGKFTASVEKNILEQVDRPLYNLPQTGANISSPAEVEENSEKFGKTKIGSKVPPTEKAVAFKVEVKDPVKVGELTSIHVEYTVISESSLLELKYAQVSRRYRDFRWLYRQLQNNHWGKVIPPPPEKQSVGSFKENFIENRRFQMESMLKKICQDPVLQKDKDFLLFLTSDDFSSESKKRAFLTGSGAINDSNDLSEVRISEIQLLGAEDAAEVLKNGGIDAESHKGFMSISFSSLPKYNEADEFFIEKKQKIDELEDNLKKLSKSLEMVDTSRNTLAASTEEFSSMVETLASLNVSEPNSELLNNFADVHKSIKSSLERSSLQETLTMGVMLDDYIRSLASVKAIFNQRSKLGYFLVVIENDMNKKHSQLGKLGQNIHSEKFREMRKEFQTLERRYNLTKKQWQAVGDKIKDEFQGFSTDKIREFRNGMEISLEAAIESQKECIELWETFYQTNL | – | binding [4]: no binding
Snx4 (protein, UniProt P47057 1-423) MTDKGKNDLTSKAKDKARGNPEKPPYWFEIIVSDPQKRTGDPGSSSGYVSYQISTKTNNTSFYDNRGDPESIIVVHRRYSDLLLLHDILLNRFPTCIIPPLPDKKVFQYIAGDRFSQRFTQKRCHSLQNFLRRVSLHPDLSQSKVFKTFLVSKDWESHRKVLQDSLQPNKDEVTDAFMNAFKTVHKQNEEFTEIREKSDKLDRTVTKIDKLFHKVVKKNDSMSEDYTKLGSNLQELQELVTGENEELAAKLKIFNEGVTQLSYGLQDLTKYLDYEYIVDLKDLEHYIDSMRQLIKLKDQKQIDYEELSDYLTRSIKEKNNLISGYGGSNFFANKLEELAGINQEASRREKINKLEGKITSLTGELENAKKVADGFEQECLKEIDHFESVKTAEIKKSLGSLADHHIEFYERILEAWEKVDDSL | no binding | –
Atg20 (protein, UniProt Q07528 1-640) MSDLNDVQENAKLNSETRNTGKAEPPHGTTEYVAEAEISKNGVGSPKKSPKKGKVGKGDNNKVETELVHTALLEKDNPFMEEGPTGFTKSALLEIPGMRSHNLKNPNEDYEDDSEGLLPLNQESNAETCRTSLSGSINSMNGETSASEEPSVSNRKKSARIHILEAKRVSEGQGRAYIAYVIQFENSTVQRRYSDFESLRSILIRLFPMTLIPPIPEKQSIKNYGKSITGSSSKYLLPSEGSGSVDLSLSVIHASVNNSDEKLIRHRIRMLTEFLNKLLTNEEITKTSIITDFLDPNNHNWHEFVNSSSTFSSLPKSILQCNPLDPTNTTRIHAMLPIPGSSSQLLLNKESNDKKMDKERSKSFTNIEQDYKQYENLLDNGIYKYNRRTTKTYHDLKSDYNEIGEVFAQFAHEQAQVGELAEQLSYLSNAFSGSSISLEKLVGRLYYNINEPLNESVHMATSARELIKYRKLKYLQNEMIKKSLNSKRAQLEKLEAQNNEYKDVDKIIDNEMSKSHTINLERPNNNTGSGGKSYGGKLFNGFNKLASMVKDSVKYQETDPHTASINLKKEIEQLSESLEVTENDLEVISKVIKNDQLPKFSKEREVDLSEILKHYSRYMRNYARQNLEIWKEVKRHQDFA | no binding | –
Mvp1 (protein, UniProt P40959 1-511) MDNYEGSDPWNTSSNAWTKDDDHVVSTTNSEPSLNGISGEFNTLNFSTPLDTNEEDTGFLPTNDVLEESIWDDSRNPLGATGMSQTPNIAANETVIDKNDARDQNIEESEADLLDWTNNVRKTYRPLDADIIIIEEIPEREGLLFKHANYLVKHLIALPSTSPSEERTVVRRYSDFLWLREILLKRYPFRMIPELPPKRIGSQNADQLFLKKRRIGLSRFINLVMKHPKLSNDDLVLTFLTVRTDLTSWRKQATYDTSNEFADKKISQEFMKMWKKEFAEQWNQAASCIDTSMELWYRITLLLERHEKRIMQMVHERNFFETLVDNFSEVTPKLYPVQQNDTILDINNNLSIIKKHLETTSSICKQETEEISGTLSPKFKIFTDILLSLRSLFERYKIMAANNVVELQRHVELNKEKLESMKGKPDVSGAEYDRIKKIIQKDRRSIIEQSNRAWLIRQCILEEFTIFQETQFLITRAFQDWAKLNSNHAGLKLNEWEKLVTSIMDMPISRE | no binding | –

More lines, main results first:

binding [1] | Binder | further results
no binding | Vps17 (protein, UniProt P32913 1-551) MTSAVPYDPYDDLDNNPFAEPQEEDSEPAATTTDGSSSMSEERVGTEQTAASVQDNGTANNIQNGLGEEGNATRSKTSNEHNENQQPSQPSERVILPERSDEKKKYTLLAKVTGLERFGSATGKKENPTIIFDCSTNLPTFRKQQYKNVKKSYEEFHQLFKYLNVAIQESFVPTLPSAYTTFGINSEEDRMKVTRNFQLWFNRLSQDPLIIRNEEVAFFIESDFNTYTPINKSKSLASGLKRKTLKQLAPPYDEITELAEFRPLVKSIYVVSQSLQEKLLRVSRNRKMMVQEENAFGQDFVNLDEHNKLYRRYGKILTAVGDIDSIIATMDMATLYDGLEWIVRDAYAVKEALTNRHFIMRNLVQAQQNSKAKQEQARRFRSRRDINPMKIDEALRQLKAAAKNEQVLTLKLQRITSNMIIERKQWISWYEEWIRSSIKEFTLRKIEYERKKLTLLERVRSDIRKADENGGLSRLGRHAVSNNNSDTSQTLKGDSWTGESNRKSQIPINKIAHTEFDDELFTEDDGYNSQDSDTTSLNARHAASLLGMSTK | –
no binding | Vps5 (as tested among the yeast SNX-BARs in Figure 3C) (protein, UniProt Q92331 1-675) MDYEDNLEAPVWDELNHEGDKTQSLVSNSIESIGQISTNEERKDNELLETTASFADKIDLDSAPEWKDPGLSVAGNPQLEEHDNSKADDLINSLAPEQDPIADLKNSTTQFIATRESGGALFTGNANSPLVFDDTIYDANTSPNTSKSISGRRSGKPRILFDSARAQRNSKRNHSLKAKRTTASDDTIKTPFTDPLKKAEKENEFVEEPLDDRNERRENNEGKFTASVEKNILEQVDRPLYNLPQTGANISSPAEVEENSEKFGKTKIGSKVPPTEKAVAFKVEVKDPVKVGELTSIHVEYTVISESSLLELKYAQVSRRYRDFRWLYRQLQNNHWGKVIPPPPEKQSVGSFKENFIENRRFQMESMLKKICQDPVLQKDKDFLLFLTSDDFSSESKKRAFLTGSGAINDSNDLSEVRISEIQLLGAEDAAEVLKNGGIDAESHKGFMSISFSSLPKYNEADEFFIEKKQKIDELEDNLKKLSKSLEMVDTSRNTLAASTEEFSSMVETLASLNVSEPNSELLNNFADVHKSIKSSLERSSLQETLTMGVMLDDYIRSLASVKAIFNQRSKLGYFLVVIENDMNKKHSQLGKLGQNIHSEKFREMRKEFQTLERRYNLTKKQWQAVGDKIKDEFQGFSTDKIREFRNGMEISLEAAIESQKECIELWETFYQTNL | –

Source: article PMC9507130
